# Measurements: patent US20090186942A1, “NOVEL NUTRACEUTICAL AND PHARMACEUTICAL COMPOSITIONS AND USE THEREOF FOR THE TREATMENT, CO-TREATMENT OR PREVENTION OF INFLAMMATORY DISORDERS” (priority 2006, published 2009)
# Some results were stated once for a whole list of compounds, not compound by compound. For at least one compound, name, drawing or mass did not settle the structure.
# System: murine macrophage indicator cell line, RAW267.4
# Assay: Inhibition of nitric oxide production in LPS-stimulated macrophages (Griess reaction)
# Type: cell-based
# Conditions: single substances; RAW267.4 cells, LPS 1 μg/ml, 24 hours; listed as [15:3] anarcardic acid
# Protocol: Pure substances were then further assayed in vitro in cellular cell systems. The inhibition of the synthesis of nitric oxide and/or pro-inflammatory prostaglandins (PG) by the compounds was measured. PGE2 plays a critical role in the inflammation process, while nitric oxide (NO) is a hallmark of inflammation in various chronic inflammatory diseases including various forms of arthritis, gastro-intestinal diseases and metabolic syndrome X. The effects of compounds on the inflammatory response were tested in cellular assays using a murine macrophage indicator cell line, RAW267.4. […]
# Substances were tested in a concentration range from 0.2 to 50 μM in two-fold dilution steps. […] Concentrations of nitrite which was rapidly formed from nitric oxide released by cells were determined by the Griess reaction using sodium nitrite as standard. Briefly, 50 μl of supernatant was mixed with Griess reagent 1 (25 μL) and Griess reagent 2 (25 μL), centrifuged and the optical density at 540 nm determined. PGE2 secreted into the cell culture medium was determined by EIA obtained from Cayman Chemicals (Ann Harbor, […]., USA) and used according to the manufacturer's instructions. […] IC50 values were calculated using a […] least-square fitting equation [y=A+((B−A)/(1+((C−x)̂D))] for best-fit curves (Excel fit software program).
compound,measurement,value
C=CC/C=C\C/C=C\CCCCCCCc1cccc(O)c1C(=O)O [(15:3)-Anacardic acid],IC50,< 20 µM
